According to patent publication US20250188041A1, “NEW COMPOUNDS AND TREATMENT OF RENAL CELL CARCINOMA” (Trustlife Global Inc., priority 2022, published 2025):
For part of these data: At least one compound was matched to its structure with a doubt left. Some entries share one result that the patent states for a list of compounds.

System: ASF1B
Assay: Western blot, ASF1B protein level in Caki-1 treated with repurposed drug
Type: cell-based, Human
Conditions: Caki-1, 5 nM, 24 h, vs DMSO control

How did the “protein level of ASF1B” value turn out when Cc1[nH]c2ccccc2c1CCNCc1ccc(/C=C/C(=O)NO)cc1 [panobinostat] was run?
Its value is “significantly decreased”.

System: Caki-1
Assay: CCK-8 cell viability assay of drug-treated Caki-1
Type: cell-based, Human
Conditions: Caki-1, CCK-8, 5 nM, 24 h, vs DMSO control
Protocol: Cell culture 1: Human clear cell renal cell carcinoma (ccRCC) cell line Caki-1 was obtained from the Karolinska Institute of Environmental Medicine, Stockholm, Sweden, derived from a ccRCC patient. The cells were cultured in RPMI 1640 medium with 10% fetal bovine serum (FBS) and 1% penicillin/streptomycin. The cells were cultivated at 37° C. in a humidified incubator with 5% CO2. TG-101209, NVP-TAE684, MK-0752, actinomycin-d, and panobinostat were purchased from Selleckchem ([…], […], […], […], […], Selleckchem, Houston, TX, USA), and withaferin-a was purchased from Sigma (W4394, Sigma-Aldrich, Saint Louis, MO, USA). These drugs were dissolved in DMSO. The cells (from cell culture 1) were seeded in a 96-well plate at 20×10^3 cells per well. After seeding for 24 h, the cells were treated for 24 h with the target drugs: TG-101209 (6 nM), NVP-TAE684 (3 nM), MK-0752 (5 nM), withaferin-a (4 uM), actinomycin-d (0.3 nM), and panobinostat (5 nM). The cells in the negative control group were only treated by DMSO for one day. Cell proliferation was detected by Cell Counting Kit-8 (CCK-8) assay. The 10 μl of CCK-8 reagent (1:10) was added to each well of 96-well plate with siRNA transfected cells or drug-treated cells by manufacturer's instruction. The 96-well plate was incubated at 37° C. for 2 hours and then measured absorbance at 450 nm using a microplate reader (Hidex Sense Beta Plus).

How did the cell viability turn out when Cc1[nH]c2ccccc2c1CCNCc1ccc(/C=C/C(=O)NO)cc1 [panobinostat] was run?
Its cell viability is “significantly reduced”.

System: BUB1B
Assay: Western blot, BUB1B expression in Caki-1 treated with TG-101209 alternatives
Type: cell-based, Human
Conditions: Caki-1, 5 μM of target drug, 1 day (FIG. 41; method says 2 days)
Protocol: Cell culture 2: Caki-1 was purchased from CLS Cell Lines Service (Germany). The cells were maintained in McCoy's SA (modified) medium (16600082, Thermo Fisher Scientific, USA) and supplemented with 10% fetal bovine serum (FBS, F7524, Sigma-Aldrich), 1% Penicillin/Streptomycin (P4333, Sigma-Aldrich).
The target drugs developed as alternatives to TG-101209, were dissolved in 0.1% DMSO (41639, Sigma-Aldrich). Caki-1 cells from cell culture 2 were seeded in a 6-well plate at 3×10^5 cells per well. […]
The cells were washed with PBS solution and then lysed with CelLytic M (C2978, Sigma-Aldrich) lysis buffer containing protease inhibitors (11836170001, Roche). The cell lysates were centrifuged at 12 000 rpm for 10 min and supernatants were collected. Protein Assay Dye Reagent (5000006, Bio-Rad) was used for the determination of protein concentration. The absorbance of the proteins was measured spectrophotometrically at 595 nm by a microplate reader (Hidex Sense Beta Plus). Protein electrophoresis was performed using Mini-PROTEAN® TGX™ Precast Gels (4561086, Bio-Rad) and then the separated proteins were transferred to a Trans-Blot Turbo Mini 0.2 um PVDF Transfer Packs membrane (1704158, Bio-Rad) by using Trans-Blot® Turbo™ Transfer System (Bio-Rad). The membrane was blocked with 5% skim milk for 30 min at 4° C. with gentle rocking. After blocking, the membrane was treated with primary antibodies: Anti-BUB1B (HPA008419, Human Protein Atlas, Sweden) and Anti-Beta actin (ab8227, Abcam) as a loading control overnight at 4° C. on a rocking platform. After the treatment of primary antibodies, the membrane was washed three times with TBS-T buffer (A09-7500-100, Medicago). Then, Goat anti-Rabbit IgG-HRP (ab205718, Abcam) was treated as the secondary antibody for 30 min at 4° C. with gentle rocking.

How did the “expression levels of BUB1B” value turn out when COc1cc(Nc2ncc(C)c(Nc3cccc(S(=O)(=O)N4CCOCC4)c3)n2)cc(OC)c1 [M104, N2-(3,5-Dimethoxyphenyl)-5-methyl-N4-(3-(morpholinosulfonyl)phenyl)pyrimidine-2,4-diamine] was run?
Its value is “ability to lower the expression levels of BUB1B”.

How did the “expression levels of BUB1B” value turn out when Cc1cnc(Nc2ccc(C(=O)Nc3ccc(OCCCN4CCOCC4)cc3)cc2)nc1Nc1cccc(S(=O)(=O)NC(C)(C)C)c1 [M101G, 4-((4-((3-(N-(tert-butyl)sulfamoyl)phenyl)amino)-5-methylpyrimidin-2-yl)amino)-N-(4-(3-morpholinopropoxy)phenyl)benzamide] was run?
Its value is “ability to lower the expression levels of BUB1B”.

Which “expression levels of BUB1B” value does the source give for Cc1cnc(Nc2ccc(OCCCN3CCOCC3)cc2)nc1Nc1cccc(S(=O)(=O)NC(C)(C)C)c1 [M103, N-(tert-butyl)-3-((5-methyl-2-((4-(3-morpholinopropoxy)phenyl)amino)pyrimidin-4-yl)amino)benzenesulfonamide] here?
Its value is “ability to lower the expression levels of BUB1B”.

Which “expression levels of BUB1B” value does the source give for COc1cc(NC(=O)c2ccc(Nc3ncc(C)c(Nc4cccc(S(=O)(=O)NC(C)(C)C)c4)n3)cc2)cc(OC)c1 [M101A, 4-((4-((3-(N-(tert-butyl)sulfamoyl)phenyl)amino)-5-methylpyrimidin-2-yl)amino)-N-(3,5-dimethoxyphenyl)benzamide] here?
Its value is “ability to lower the expression levels of BUB1B”.

How did the “expression levels of BUB1B” value turn out when Cc1cnc(Nc2ccc(C(=O)Nc3cccc(S(=O)(=O)NC(C)(C)C)c3)cc2)nc1Nc1cccc(S(=O)(=O)NC(C)(C)C)c1 [M101D, N-(3-(N-(tert-butyl)sulfamoyl)phenyl)-4-((4-((3-(N-(tert-butyl)sulfamoyl)phenyl)amino)-5-methylpyrimidin-2-yl)amino)benzamide] was run?
Its value is “ability to lower the expression levels of BUB1B”.

For Cc1cnc(Nc2ccc(OCCCN3CCOCC3)cc2)nc1Nc1cccc(S(=O)(=O)N2CCOCC2)c1 [M106, 5-methyl-N2-(4-(3-morpholinopropoxy)phenyl)-N4-(3-(morpholinosulfonyl)phenyl)pyrimidine-2,4-diamine], which “expression levels of BUB1B” value is on record?
The value was “ability to lower the expression levels of BUB1B”.

How did the “expression levels of BUB1B” value turn out when Cc1ccc(Nc2ncc(C)c(Nc3cccc(S(=O)(=O)N4CCOCC4)c3)n2)cc1Nc1nc(-c2cccnc2)cs1 [M105, 5-methyl-N2-(4-methyl-3-((4-(pyridin-3-yl)thiazol-2-yl)amino)phenyl)-N4-(3-(morpholinosulfonyl)phenyl)pyrimidine-2,4-diamine] was run?
Its value is “ability to lower the expression levels of BUB1B”.
